Results on five molecules are retold here after paper PMC6868236.

Sequences of proteins named here, by UniProt entry; tags and fusion partners are left off.
UniProt P35177: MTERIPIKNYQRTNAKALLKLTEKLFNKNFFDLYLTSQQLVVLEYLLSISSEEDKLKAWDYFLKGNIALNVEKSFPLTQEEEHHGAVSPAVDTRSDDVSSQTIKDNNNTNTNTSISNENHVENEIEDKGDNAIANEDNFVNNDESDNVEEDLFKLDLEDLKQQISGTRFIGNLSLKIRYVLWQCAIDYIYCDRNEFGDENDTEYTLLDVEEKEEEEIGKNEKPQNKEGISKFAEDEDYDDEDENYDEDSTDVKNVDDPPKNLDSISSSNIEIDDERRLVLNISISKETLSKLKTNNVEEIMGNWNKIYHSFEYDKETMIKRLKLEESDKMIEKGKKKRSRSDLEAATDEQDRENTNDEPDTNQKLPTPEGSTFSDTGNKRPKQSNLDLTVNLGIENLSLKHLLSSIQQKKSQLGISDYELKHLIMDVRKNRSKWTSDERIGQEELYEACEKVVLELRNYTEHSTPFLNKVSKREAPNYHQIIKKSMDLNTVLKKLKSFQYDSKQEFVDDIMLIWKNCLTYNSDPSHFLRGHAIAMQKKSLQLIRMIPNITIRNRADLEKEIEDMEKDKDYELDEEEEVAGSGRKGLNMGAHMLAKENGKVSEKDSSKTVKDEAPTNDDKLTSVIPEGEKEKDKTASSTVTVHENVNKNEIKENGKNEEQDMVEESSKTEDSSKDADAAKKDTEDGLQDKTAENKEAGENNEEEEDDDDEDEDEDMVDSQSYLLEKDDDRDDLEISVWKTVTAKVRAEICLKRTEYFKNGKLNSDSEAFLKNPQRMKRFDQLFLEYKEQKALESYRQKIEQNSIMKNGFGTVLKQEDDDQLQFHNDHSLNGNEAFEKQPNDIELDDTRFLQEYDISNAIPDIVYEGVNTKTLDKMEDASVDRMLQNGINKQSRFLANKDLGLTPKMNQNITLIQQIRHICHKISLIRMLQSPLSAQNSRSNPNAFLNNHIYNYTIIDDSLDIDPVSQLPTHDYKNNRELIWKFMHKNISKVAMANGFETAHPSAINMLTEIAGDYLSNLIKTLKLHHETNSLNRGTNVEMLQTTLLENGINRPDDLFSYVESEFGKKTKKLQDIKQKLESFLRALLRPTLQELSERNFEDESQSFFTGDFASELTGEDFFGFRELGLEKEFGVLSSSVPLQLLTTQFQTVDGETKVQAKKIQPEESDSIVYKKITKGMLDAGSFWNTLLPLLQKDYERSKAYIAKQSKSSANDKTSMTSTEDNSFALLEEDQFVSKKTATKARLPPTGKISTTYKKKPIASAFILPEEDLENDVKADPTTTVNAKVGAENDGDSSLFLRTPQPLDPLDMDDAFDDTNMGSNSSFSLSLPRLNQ
UniProt Q9HFE8: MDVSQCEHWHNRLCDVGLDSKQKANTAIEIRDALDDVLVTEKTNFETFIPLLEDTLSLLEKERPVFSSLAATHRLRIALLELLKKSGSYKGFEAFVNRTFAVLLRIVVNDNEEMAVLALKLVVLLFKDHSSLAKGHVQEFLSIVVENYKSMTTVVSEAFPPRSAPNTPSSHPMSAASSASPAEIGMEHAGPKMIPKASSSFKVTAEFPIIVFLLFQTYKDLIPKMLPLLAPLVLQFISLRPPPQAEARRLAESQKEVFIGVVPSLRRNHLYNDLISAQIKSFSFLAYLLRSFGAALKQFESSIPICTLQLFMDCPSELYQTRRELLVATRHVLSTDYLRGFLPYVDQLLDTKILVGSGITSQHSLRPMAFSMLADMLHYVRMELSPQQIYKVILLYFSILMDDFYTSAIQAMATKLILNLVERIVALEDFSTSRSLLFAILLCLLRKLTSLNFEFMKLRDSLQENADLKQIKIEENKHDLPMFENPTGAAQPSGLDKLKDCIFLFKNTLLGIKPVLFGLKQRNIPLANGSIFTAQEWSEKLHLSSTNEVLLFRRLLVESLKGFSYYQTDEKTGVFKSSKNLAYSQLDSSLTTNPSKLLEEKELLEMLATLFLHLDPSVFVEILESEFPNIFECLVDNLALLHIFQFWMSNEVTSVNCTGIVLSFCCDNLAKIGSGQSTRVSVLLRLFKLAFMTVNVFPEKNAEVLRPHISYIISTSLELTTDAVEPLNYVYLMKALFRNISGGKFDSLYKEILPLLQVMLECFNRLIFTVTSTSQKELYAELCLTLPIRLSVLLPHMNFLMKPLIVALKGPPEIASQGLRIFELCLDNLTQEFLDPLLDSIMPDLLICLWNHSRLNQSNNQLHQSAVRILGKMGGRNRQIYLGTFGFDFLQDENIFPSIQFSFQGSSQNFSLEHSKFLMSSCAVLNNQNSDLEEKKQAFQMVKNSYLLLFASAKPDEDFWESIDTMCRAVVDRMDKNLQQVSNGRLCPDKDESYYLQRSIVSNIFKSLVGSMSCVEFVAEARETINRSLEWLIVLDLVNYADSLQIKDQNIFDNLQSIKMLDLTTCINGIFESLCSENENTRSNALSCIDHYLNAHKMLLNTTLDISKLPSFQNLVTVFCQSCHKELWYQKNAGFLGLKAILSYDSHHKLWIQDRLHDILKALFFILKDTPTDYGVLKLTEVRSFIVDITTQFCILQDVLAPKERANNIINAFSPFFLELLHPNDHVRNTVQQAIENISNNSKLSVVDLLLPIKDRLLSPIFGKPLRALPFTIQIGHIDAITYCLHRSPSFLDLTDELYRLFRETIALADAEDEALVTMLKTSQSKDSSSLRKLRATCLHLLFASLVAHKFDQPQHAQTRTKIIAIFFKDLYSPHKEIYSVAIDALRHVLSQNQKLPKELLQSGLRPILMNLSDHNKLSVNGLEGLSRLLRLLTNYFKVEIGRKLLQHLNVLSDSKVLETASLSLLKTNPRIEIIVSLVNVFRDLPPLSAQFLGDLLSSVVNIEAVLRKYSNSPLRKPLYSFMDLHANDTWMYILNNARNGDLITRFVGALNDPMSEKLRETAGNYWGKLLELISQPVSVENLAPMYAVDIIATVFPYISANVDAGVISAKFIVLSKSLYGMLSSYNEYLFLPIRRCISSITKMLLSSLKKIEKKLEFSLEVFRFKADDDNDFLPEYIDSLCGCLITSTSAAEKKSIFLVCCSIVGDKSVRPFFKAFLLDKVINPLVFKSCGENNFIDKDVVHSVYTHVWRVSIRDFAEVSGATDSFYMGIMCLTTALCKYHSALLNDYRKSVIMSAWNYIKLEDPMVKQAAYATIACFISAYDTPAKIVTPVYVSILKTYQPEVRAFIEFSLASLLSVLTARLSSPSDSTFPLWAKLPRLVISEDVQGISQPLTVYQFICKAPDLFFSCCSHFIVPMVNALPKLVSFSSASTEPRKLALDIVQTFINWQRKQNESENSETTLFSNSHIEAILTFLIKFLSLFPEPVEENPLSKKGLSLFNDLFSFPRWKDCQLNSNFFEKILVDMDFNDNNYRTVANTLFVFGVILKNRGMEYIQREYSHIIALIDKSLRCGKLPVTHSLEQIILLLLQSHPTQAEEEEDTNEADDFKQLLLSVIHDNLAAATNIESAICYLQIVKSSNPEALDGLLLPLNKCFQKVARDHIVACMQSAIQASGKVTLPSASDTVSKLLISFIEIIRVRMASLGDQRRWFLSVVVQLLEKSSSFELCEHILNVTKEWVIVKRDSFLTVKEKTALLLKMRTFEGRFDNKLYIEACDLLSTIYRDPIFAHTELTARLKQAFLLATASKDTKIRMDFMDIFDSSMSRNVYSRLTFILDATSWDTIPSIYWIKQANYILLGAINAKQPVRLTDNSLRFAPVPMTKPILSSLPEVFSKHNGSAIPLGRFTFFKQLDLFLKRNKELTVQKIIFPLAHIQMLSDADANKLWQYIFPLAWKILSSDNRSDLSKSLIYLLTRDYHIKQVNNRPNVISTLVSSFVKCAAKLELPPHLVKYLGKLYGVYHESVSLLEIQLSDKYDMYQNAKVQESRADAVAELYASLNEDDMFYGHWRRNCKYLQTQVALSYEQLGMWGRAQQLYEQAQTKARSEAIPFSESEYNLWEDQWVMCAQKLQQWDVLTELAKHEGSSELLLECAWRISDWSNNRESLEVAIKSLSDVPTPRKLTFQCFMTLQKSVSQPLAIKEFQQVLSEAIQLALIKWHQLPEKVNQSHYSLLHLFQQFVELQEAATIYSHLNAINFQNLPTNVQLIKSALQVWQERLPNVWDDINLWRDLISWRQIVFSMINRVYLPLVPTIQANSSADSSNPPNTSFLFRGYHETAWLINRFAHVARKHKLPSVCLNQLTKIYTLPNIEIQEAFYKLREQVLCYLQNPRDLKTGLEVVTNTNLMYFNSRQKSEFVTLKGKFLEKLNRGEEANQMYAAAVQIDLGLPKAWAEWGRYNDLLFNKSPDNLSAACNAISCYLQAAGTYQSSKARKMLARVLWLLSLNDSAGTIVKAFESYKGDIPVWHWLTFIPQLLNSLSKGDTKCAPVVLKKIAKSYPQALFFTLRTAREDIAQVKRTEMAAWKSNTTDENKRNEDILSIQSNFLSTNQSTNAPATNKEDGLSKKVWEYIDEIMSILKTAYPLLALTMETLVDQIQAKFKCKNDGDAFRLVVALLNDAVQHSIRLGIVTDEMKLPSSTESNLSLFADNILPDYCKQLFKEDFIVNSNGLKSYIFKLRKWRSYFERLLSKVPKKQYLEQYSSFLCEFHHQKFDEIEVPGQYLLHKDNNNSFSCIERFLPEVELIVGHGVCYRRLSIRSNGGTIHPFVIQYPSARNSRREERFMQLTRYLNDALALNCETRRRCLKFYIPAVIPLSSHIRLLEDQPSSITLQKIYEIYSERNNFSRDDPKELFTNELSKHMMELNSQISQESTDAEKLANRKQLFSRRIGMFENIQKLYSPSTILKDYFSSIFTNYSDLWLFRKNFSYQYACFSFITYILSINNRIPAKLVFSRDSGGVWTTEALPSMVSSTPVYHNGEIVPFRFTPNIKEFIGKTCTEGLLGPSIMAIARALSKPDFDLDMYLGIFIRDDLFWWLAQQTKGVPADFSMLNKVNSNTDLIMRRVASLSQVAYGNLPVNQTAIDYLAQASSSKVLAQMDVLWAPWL

The target of test [1] is T1, GST fused to S. cerevisiae (Sc) Spt20 HIT region (residues 468–537) (S. cerevisiae) (UniProt P50875).
T1 sequence: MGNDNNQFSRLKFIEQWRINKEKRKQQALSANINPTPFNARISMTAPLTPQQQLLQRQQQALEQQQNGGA
The experiment in a line: pull-down; GST or GST-HIT on Glutathione Sepharose 4B beads incubated overnight at 4 °C with 5–10 mg of S. pombe protein extracts in WEB lysis buffer (40 mM HEPES-NaOH pH 7.4, 350 mM NaCl, 0.1% NP40, 10% glycerol); anti-FLAG western blot; only the target purified.

Test [2] deals with T2, GST fused to S. pombe (Sp) Spt20 HIT region (residues 282–324) (S. pombe) (UniProt O14174).
T2 sequence: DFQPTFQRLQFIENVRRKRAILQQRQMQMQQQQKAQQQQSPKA
The test is described as above.

Test [3] deals with HA-Spt7-TAP (S. cerevisiae) (S. cerevisiae) (UniProt P35177). In words: co-IP; S. cerevisiae SAGA eluates purified by HA-Spt7-TAP, anti-V5 western blot of Spt20 truncation mutants. (In general: Immunoblotting shows a protein as a band on a membrane.)

Results are given in words; binding and its absence hold for the method and conditions named. Binding seen in cells or lysates may run through a third protein. Some entries that bind do so weakly or less than the wild type. Tags and fused reporters may be left off the sequences shown.

Consider “FLAG-Tra1 (S. pombe, wild type) (from UniProt Q9HFE8 1-3661)”, for which the binding entry in test [1] and in test [2] was “binds” in each case.

B1: Spt20-380 (S. cerevisiae Spt20 truncation, V5-tagged) (domain or fragment, UniProt P50875 1-380)
chain: MSANSPTGNDPHVFGIPVNATPSNMGSPGSPVNVPPPMNPAVANVNHPVMRTNSNSNANEGTRTLTREQIQQLQQRQRLLLQQRLLEQQRKQQALQNYEAQFYQMLMTLNKRPKRLYNFVEDADSILKKYEQYLHSFEFHIYENNYKICAPANSRLQQQQKQPELTSDGLILTKNNETLKEFLEYVARGRIPDAIMEVLRDCNIQFYEGNLILQVYDHTNTVDVTPKENKPNLNSSSSPSNNNSTQDNSKIQQPSEPNSGVANTGANTANKKASFKRPRVYRTLLKPNDLTTYYDMMSYADNARFSDSIYQQFESEILTLTKRNLSLSVPLNPYEHRDMLEETAFSEPHWDSEKKSFIHEHRAESTREGTKGVVGHIEER
With B1, the binding entry in test [3] is listed as “binds”.

B2: Spt20-474 (S. cerevisiae Spt20 truncation, V5-tagged) (domain or fragment, UniProt P50875 1-474)
chain: MSANSPTGNDPHVFGIPVNATPSNMGSPGSPVNVPPPMNPAVANVNHPVMRTNSNSNANEGTRTLTREQIQQLQQRQRLLLQQRLLEQQRKQQALQNYEAQFYQMLMTLNKRPKRLYNFVEDADSILKKYEQYLHSFEFHIYENNYKICAPANSRLQQQQKQPELTSDGLILTKNNETLKEFLEYVARGRIPDAIMEVLRDCNIQFYEGNLILQVYDHTNTVDVTPKENKPNLNSSSSPSNNNSTQDNSKIQQPSEPNSGVANTGANTANKKASFKRPRVYRTLLKPNDLTTYYDMMSYADNARFSDSIYQQFESEILTLTKRNLSLSVPLNPYEHRDMLEETAFSEPHWDSEKKSFIHEHRAESTREGTKGVVGHIEERDEFPQHSSNYEQLMLIMNERTTTITNSTFAVSLTKNAMEIASSSSNGVRGASSSTSNSASNTRNNSLANGNQVALAAAAAAAAVGSTMGNDNNQ
On to B2, for which, in test [3], the binding result is given as “binds”.

B3: Spt20-408 (S. cerevisiae Spt20 truncation, V5-tagged) (domain or fragment, UniProt P50875 1-408)
chain: MSANSPTGNDPHVFGIPVNATPSNMGSPGSPVNVPPPMNPAVANVNHPVMRTNSNSNANEGTRTLTREQIQQLQQRQRLLLQQRLLEQQRKQQALQNYEAQFYQMLMTLNKRPKRLYNFVEDADSILKKYEQYLHSFEFHIYENNYKICAPANSRLQQQQKQPELTSDGLILTKNNETLKEFLEYVARGRIPDAIMEVLRDCNIQFYEGNLILQVYDHTNTVDVTPKENKPNLNSSSSPSNNNSTQDNSKIQQPSEPNSGVANTGANTANKKASFKRPRVYRTLLKPNDLTTYYDMMSYADNARFSDSIYQQFESEILTLTKRNLSLSVPLNPYEHRDMLEETAFSEPHWDSEKKSFIHEHRAESTREGTKGVVGHIEERDEFPQHSSNYEQLMLIMNERTTTITNST
In the case of B3, the binding entry in test [3] is “binds”.

B4: Spt20-492 (S. cerevisiae Spt20 truncation, V5-tagged) (domain or fragment, UniProt P50875 1-492)
chain: MSANSPTGNDPHVFGIPVNATPSNMGSPGSPVNVPPPMNPAVANVNHPVMRTNSNSNANEGTRTLTREQIQQLQQRQRLLLQQRLLEQQRKQQALQNYEAQFYQMLMTLNKRPKRLYNFVEDADSILKKYEQYLHSFEFHIYENNYKICAPANSRLQQQQKQPELTSDGLILTKNNETLKEFLEYVARGRIPDAIMEVLRDCNIQFYEGNLILQVYDHTNTVDVTPKENKPNLNSSSSPSNNNSTQDNSKIQQPSEPNSGVANTGANTANKKASFKRPRVYRTLLKPNDLTTYYDMMSYADNARFSDSIYQQFESEILTLTKRNLSLSVPLNPYEHRDMLEETAFSEPHWDSEKKSFIHEHRAESTREGTKGVVGHIEERDEFPQHSSNYEQLMLIMNERTTTITNSTFAVSLTKNAMEIASSSSNGVRGASSSTSNSASNTRNNSLANGNQVALAAAAAAAAVGSTMGNDNNQFSRLKFIEQWRINKEKRK
Regarding B4, the binding entry in test [3] is given as “binds”.
